Source: US20040039014A1, “Methods and compounds for treating depression and other disorders” (NPS Pharmaceuticals, Inc., priority 1998, published 2004)

Biological target: T1, NMDA receptor
T1 construct: rat cortex membranes
Test: [3H]MK-801 binding assay (rat cortex synaptic plasma membranes)
Settings: Table II
Experimental: Synaptic plasma membranes (SPMs) from rat cortex were prepared as follows. Isolated cerebral cortices from male and female rats were purchased from Pel-Freez (Rogers, Ariz.) in bulk, and stored at −80° C. The cortices from 25 rats were thawed and pooled. […] The resulting homogenates were centrifuged for 10 min at 1,000×g in a T865 rotor, UltraPro80 Sorvall Centrifuge. The supernatant was removed and subsequently centrifuged at 30,000×g for 30 min. […] Membranes were washed by re-suspension in 500 ml of 5 mM K-EDTA (pH 7.0), incubated at 32° C. for 30 min with stirring, and centrifuged at 100,000×g for 30 min. The final pellet was resuspended in 60 ml of […] K-EDTA (pH 7.0) and stored in aliquots at −80° C. The extensive washing procedure utilized in this assay was designed to minimize the concentrations of glutamate and glycine (co-agonists at the NMDA receptor-ionophore complex) present in the membrane preparation.
On the day of assay, aliquots of SPM were thawed and resuspended in 75 vols of 5 mM K-EDTA, pH 7.0. SPM were centrifuged at 100,000×g for 30 min at 4° C.
The SPM pellet was resuspended in assay buffer (30 mM EPPS, 1 mM K-EDTA, pH 7.0) by polytron. […] Radioactivity on the filters was measured using Fisherbrand Scinti-Safe scintillation cocktail. Samples were shaken for 45-60 min on a shaker platform to solubilize the radioactivity. […]

CNCCC(Oc1ccc(C(F)(F)F)cc1)c1ccccc1 (stereo not shown) [Fluoxetine, reference compound]
[3H]MK-801 data: No activity at 10 μM
